Article doi:10.1101/2019.12.15.876821
No constants are given. Whether binding was seen depends on the method and setting. In cells and extracts the contact can be indirect. Some entries that bind do so weakly or less than the wild type.

Sequences of proteins named here, by UniProt entry; tags and fusion partners are left off.
UniProt P49327: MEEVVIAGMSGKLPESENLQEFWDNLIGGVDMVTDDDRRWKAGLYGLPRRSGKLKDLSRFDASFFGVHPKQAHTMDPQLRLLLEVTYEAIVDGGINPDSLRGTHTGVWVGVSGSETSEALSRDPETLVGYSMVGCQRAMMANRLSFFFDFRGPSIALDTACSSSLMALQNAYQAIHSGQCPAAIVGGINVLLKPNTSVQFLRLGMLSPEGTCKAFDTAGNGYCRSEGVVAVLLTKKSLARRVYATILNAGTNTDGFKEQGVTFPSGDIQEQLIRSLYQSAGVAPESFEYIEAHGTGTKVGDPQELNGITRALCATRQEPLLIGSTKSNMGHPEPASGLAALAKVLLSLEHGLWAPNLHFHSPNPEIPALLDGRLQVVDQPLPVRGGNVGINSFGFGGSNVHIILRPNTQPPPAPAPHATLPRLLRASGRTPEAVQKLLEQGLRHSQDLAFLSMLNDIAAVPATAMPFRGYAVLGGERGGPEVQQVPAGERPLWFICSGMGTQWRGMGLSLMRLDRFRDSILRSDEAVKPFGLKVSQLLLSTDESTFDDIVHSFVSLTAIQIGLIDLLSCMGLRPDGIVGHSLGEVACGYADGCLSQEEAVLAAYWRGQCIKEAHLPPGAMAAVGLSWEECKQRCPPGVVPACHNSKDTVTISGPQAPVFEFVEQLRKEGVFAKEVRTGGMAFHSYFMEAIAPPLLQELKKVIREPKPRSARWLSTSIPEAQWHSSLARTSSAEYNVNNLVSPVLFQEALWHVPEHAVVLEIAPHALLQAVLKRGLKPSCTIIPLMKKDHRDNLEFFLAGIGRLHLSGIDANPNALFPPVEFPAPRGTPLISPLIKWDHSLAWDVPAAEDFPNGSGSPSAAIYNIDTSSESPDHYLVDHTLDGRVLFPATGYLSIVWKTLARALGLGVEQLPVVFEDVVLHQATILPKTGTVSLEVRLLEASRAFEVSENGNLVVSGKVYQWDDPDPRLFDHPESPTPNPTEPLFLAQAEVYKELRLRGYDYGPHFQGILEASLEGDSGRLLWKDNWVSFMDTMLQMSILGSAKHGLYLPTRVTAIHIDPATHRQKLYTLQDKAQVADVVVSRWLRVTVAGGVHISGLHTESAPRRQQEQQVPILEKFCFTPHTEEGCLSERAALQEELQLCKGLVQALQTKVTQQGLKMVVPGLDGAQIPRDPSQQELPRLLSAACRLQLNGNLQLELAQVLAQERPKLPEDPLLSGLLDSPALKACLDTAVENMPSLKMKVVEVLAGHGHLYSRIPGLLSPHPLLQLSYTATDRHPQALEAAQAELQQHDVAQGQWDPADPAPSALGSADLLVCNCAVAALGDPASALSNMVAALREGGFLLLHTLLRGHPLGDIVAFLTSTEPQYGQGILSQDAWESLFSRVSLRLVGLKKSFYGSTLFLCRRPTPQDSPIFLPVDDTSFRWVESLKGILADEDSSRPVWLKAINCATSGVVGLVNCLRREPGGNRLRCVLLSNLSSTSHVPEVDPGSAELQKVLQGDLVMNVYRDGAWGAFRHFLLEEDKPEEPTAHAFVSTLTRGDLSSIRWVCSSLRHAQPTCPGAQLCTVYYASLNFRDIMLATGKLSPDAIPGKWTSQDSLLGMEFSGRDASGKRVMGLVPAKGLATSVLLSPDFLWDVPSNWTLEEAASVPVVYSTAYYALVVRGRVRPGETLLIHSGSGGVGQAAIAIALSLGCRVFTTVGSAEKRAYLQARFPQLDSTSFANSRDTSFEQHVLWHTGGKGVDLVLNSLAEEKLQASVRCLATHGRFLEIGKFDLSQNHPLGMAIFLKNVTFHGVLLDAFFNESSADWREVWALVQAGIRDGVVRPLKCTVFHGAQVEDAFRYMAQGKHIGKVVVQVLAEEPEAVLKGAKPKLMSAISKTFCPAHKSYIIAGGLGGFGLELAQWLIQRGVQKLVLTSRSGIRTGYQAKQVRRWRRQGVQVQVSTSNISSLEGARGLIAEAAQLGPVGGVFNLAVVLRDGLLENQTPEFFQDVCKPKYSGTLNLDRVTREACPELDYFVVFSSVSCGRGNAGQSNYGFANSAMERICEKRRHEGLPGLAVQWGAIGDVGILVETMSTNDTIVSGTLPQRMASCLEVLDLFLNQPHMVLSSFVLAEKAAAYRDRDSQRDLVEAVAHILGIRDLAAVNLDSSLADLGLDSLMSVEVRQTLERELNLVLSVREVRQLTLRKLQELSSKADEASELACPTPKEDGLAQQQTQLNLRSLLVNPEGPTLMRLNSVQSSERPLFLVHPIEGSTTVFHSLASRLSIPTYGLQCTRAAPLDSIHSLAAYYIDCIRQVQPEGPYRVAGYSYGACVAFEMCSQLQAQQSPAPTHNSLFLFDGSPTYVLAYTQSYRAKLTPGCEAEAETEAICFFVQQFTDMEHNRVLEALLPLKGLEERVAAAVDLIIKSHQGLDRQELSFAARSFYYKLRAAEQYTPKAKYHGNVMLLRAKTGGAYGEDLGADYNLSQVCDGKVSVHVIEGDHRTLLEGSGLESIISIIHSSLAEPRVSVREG

Biological target: fatty acid synthase (FASN) (human (endogenous in DG75)) (UniProt P49327)
Assay: co-IP

B1: ubiquitin-specific peptidase 2a (USP2a) (enzyme, UniProt O75604-1 1-605)
chain: MSQLSSTLKRYTESARYTDAHYAKSGYGAYTPSSYGANLAASLLEKEKLGFKPVPTSSFLTRPRTYGPSSLLDYDRGRPLLRPDITGGGKRAESQTRGTERPLGSGLSGGSGFPYGVTNNCLSYLPINAYDQGVTLTQKLDSQSDLARDFSSLRTSDSYRIDPRNLGRSPMLARTRKELCTLQGLYQTASCPEYLVDYLENYGRKGSASQVPSQAPPSRVPEIISPTYRPIGRYTLWETGKGQAPGPSRSSSPGRDGMNSKSAQGLAGLRNLGNTCFMNSILQCLSNTRELRDYCLQRLYMRDLHHGSNAHTALVEEFAKLIQTIWTSSPNDVVSPSEFKTQIQRYAPRFVGYNQQDAQEFLRFLLDGLHNEVNRVTLRPKSNPENLDHLPDDEKGRQMWRKYLEREDSRIGDLFVGQLKSSLTCTDCGYCSTVFDPFWDLSLPIAKRGYPEVTLMDCMRLFTKEDVLDGDEKPTCCRCRGRKRCIKKFSIQRFPKILVLHLKRFSESRIRTSKLTTFVNFPLRDLDLREFASENTNHAVYNLYAVSNHSGTTMGGHYTAYCRSPGTGEWHTFNDSSVTPMSSSQVRTSDAYLLFYELASPPSRM
binding: binds
